A short description of the assay: qHTS Assay to Find Inhibitors of Chronic Active B-Cell Receptor Signaling. The conditions noted are these: ABC-DLBCL IkBa-CBG/CBR reporter, luminescence ratio (green luciferase fused to IkBa over red control in TMD8 lymphoma cells), 4 h. An outline of the steps:
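TMD8 human ABC-DLBCL cells with doxycycline-inducible IκBα–green luciferase fusion and unfused red luciferase, in 0.5% FBS medium; compounds up to 46 uM, 4 h at 37C. Green/red luminescence ratio, filter-overlap corrected, fitted to concentration-response curves.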

[1] abbreviates: measured here: CBR red luminescence, cell number.
The mark [2] stands for this setting: measured here: IkBa-CBG green luminescence.

SMILES strings stand for the structures. This is one part of the list. These are further read-outs of the screen, such as a control signal, another cell line or another target. No call is given for them. Most of these compounds were active or inconclusive in the main read-out, so they are no random draw. Words in brackets tell the shape of the fitted curve; partial curves, single points and poor fits give uncertain potencies.

In the case of `CN(C)CCOC(=O)c1ccc2[nH]c3c(c2c1)CSCC3`, the AC50 under setting [1] was 6.31 µM [rising, single point].

Consider `N#Cc1nc(COc2ccccc2F)oc1NCc1ccc(F)cc1`, for which the AC50 under setting [1] is 2.51 µM [rising, partial curve, poor fit]. For `CN(C)CCCN(C(=O)c1sc2ccccc2c1Cl)c1nc2c(F)cccc2s1`, the AC50 under setting [1] was 4.61 µM [falling, single point]. On to `N#CC(C#N)=Cc1cc2ccccc2nc1N1CCCCC1`, for which, under setting [1], the concentration at half-maximal activity (AC50) was 16.4 µM [falling, single point]. On the same count and under the same terms, the same measure for `Cc1ccccc1CCN1CCCC(CN(C)CC(C)(C)C)C1` (centres undefined): 10 µM [rising, partial curve]; for `COc1ccc(C(=O)Oc2ccc(F)cc2C(=O)/C=C/c2ccc(OC)c(OC)c2)cc1`: 14.6 µM [rising, partial curve, poor fit]; for `CC(=O)Nc1cccc(-c2nnc(-c3ccccc3)o2)c1`: 7.31 µM [falling, partial curve]. As for `Cc1cc(C)nc(Nc2n[nH]c(-c3ccc(N)cc3)n2)n1`, under setting [1], the concentration at half-maximal activity (AC50) is 10.3 µM [falling, partial curve, poor fit]. Still for that read-out and setting: the same measure for `CCn1c(SCC(=O)N2CCOCC2)nnc1C(C)NC(=O)c1ccccc1` (centres undefined): 0.708 µM [rising, partial curve, poor fit].

As for `CCn1c(C)c(C)c2cc(C(=O)NC3CCCCCC3)ccc21`, the AC50 under setting [1] is 0.316 µM [falling, full curve, poor fit].

For the compound `CCCC(=O)N1CC(=O)Nc2ccc(C)cc2C1c1ccccc1` (centres undefined), under setting [1], the AC50 was 2.24 µM [rising, full curve, poor fit].

With `O=C(Nc1sc2c(c1C(=O)O)CCC2)c1ccccc1F`, the half-maximal activity concentration (AC50) under setting [1] was 0.562 µM [falling, full curve]. On the same count and under the same terms, the same measure for `CCn1cc(C(=O)N2CCCC(CO)(Cc3ccccc3C)C2)cn1` (centres undefined): 0.562 µM [rising, full curve, poor fit]; for `COC(=O)c1ccc(CNC(=O)CCc2c[nH]c3ccccc23)cc1`: 35.5 µM [falling, single point]; for `CC(=O)c1c(C)[nH]c(C(=O)CSc2nc3ccccc3n2C)c1C`: 7.08 µM [falling, partial curve]. On to `N#CC1=C(N)NC(SCc2ccccc2)=C(C#N)C12CCCCC2`, for which the AC50 was 0.2 µM [falling, full curve, poor fit] under setting [1] and 35.5 µM [falling, single point] under setting [2]. As for `Cc1ccc(-c2nc3scc(CCNS(=O)(=O)c4c(C)noc4C)n3n2)cc1`, the AC50 runs as follows: under setting [1], 35.5 µM [falling, single point]; under setting [2], 15.8 µM [rising, partial curve, poor fit].

For the origin of these results see PubChem BioAssay AID493014 (National Center for Advancing Translational Sciences (NCATS), 2011).
